Laboratory results published in PMC6333334.
Results are given in words; binding and its absence hold for the method and conditions named. Binding seen in cells or lysates may run through a third protein. For some assays here: Binding can be weak; no strength is given. Values belong to the substance of their own block, whether it stands above or below them.

Chains of the proteins cited; added tags and fusions are not shown. Lines headed by an entry give the natural chain unless they say otherwise; changes in a name come on top. Residues count along the entry.
UniProt Q24298: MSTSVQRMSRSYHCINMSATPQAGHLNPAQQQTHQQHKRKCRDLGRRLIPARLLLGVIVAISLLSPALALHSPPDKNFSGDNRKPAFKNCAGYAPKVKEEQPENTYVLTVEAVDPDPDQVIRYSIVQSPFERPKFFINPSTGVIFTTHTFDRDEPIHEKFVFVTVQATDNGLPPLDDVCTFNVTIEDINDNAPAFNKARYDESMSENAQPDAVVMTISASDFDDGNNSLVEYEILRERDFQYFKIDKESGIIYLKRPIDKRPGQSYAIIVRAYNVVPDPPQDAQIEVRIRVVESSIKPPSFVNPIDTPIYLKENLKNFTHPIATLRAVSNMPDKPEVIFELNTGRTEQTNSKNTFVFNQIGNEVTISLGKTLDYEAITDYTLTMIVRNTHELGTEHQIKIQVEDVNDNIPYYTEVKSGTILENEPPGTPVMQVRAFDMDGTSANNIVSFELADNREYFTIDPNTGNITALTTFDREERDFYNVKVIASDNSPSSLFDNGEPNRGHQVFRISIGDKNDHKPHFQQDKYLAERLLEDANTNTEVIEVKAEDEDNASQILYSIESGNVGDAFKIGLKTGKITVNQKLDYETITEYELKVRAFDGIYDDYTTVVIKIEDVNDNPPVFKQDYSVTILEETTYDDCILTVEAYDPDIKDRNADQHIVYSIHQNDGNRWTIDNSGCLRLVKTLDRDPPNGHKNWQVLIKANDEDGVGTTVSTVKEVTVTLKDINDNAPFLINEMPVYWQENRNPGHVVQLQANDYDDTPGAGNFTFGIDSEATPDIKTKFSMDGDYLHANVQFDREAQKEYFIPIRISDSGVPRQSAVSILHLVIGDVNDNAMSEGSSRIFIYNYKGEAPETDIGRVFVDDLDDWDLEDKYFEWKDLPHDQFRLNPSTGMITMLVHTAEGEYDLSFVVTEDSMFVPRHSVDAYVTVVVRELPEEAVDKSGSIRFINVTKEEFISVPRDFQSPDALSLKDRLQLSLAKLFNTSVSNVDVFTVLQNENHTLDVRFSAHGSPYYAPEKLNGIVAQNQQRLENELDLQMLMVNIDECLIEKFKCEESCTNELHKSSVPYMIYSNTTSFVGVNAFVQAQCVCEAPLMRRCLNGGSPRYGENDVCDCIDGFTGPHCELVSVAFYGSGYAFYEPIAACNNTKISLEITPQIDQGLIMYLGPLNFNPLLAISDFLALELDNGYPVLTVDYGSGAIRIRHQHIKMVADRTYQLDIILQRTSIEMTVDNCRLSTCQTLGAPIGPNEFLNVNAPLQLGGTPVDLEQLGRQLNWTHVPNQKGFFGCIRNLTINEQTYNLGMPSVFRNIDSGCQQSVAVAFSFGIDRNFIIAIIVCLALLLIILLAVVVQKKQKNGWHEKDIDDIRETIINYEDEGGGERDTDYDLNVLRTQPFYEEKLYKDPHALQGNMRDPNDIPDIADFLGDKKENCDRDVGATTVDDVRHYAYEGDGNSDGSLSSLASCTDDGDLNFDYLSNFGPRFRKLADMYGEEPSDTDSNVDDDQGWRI
UniProt Q04164, residues 42-1693: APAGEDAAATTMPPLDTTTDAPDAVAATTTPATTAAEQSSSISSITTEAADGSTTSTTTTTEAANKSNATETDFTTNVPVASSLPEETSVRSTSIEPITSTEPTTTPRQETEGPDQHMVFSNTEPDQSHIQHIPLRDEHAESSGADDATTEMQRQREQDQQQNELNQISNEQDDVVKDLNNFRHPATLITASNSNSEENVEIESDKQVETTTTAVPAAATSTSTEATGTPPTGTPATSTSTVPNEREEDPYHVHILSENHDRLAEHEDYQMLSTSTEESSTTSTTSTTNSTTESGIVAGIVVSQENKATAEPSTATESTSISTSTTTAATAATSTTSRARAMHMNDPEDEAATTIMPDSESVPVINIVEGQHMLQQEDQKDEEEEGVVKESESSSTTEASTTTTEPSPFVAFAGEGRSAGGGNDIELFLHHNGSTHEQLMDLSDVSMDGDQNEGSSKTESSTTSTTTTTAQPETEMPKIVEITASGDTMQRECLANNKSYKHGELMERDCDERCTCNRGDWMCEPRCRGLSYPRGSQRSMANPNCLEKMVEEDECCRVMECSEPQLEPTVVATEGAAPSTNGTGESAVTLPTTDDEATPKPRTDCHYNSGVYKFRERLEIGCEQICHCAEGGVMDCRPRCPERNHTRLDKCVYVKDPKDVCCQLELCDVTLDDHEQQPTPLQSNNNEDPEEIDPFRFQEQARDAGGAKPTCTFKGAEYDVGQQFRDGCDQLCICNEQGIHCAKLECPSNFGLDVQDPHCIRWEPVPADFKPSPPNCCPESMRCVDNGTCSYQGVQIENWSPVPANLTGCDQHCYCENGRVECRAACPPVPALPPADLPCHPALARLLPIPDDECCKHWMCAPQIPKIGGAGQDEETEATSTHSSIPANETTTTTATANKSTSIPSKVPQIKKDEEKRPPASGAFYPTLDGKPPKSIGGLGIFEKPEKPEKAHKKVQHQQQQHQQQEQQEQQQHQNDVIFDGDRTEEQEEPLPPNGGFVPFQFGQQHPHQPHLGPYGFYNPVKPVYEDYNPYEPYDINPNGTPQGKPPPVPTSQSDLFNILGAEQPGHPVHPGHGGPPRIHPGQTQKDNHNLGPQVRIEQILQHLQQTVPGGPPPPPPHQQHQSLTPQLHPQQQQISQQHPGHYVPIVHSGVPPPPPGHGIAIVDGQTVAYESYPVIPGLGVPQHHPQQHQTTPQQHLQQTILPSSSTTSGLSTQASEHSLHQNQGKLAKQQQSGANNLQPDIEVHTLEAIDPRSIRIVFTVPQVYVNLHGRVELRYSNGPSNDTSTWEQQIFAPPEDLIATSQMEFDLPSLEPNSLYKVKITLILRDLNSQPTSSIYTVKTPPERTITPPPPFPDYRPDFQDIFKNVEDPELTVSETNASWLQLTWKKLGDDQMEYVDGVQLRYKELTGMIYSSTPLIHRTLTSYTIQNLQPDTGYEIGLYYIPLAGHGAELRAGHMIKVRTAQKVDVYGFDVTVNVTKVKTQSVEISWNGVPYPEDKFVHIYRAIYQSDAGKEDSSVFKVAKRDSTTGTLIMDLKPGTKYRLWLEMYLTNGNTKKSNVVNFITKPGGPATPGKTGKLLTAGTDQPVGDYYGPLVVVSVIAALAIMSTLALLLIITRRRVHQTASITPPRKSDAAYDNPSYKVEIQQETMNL
UniProt Q9VFX3: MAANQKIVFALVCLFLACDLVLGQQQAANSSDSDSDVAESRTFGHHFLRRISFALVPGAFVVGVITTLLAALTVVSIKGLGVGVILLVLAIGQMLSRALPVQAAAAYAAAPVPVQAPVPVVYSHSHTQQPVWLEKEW
UniProt P10040, residues 84-2146: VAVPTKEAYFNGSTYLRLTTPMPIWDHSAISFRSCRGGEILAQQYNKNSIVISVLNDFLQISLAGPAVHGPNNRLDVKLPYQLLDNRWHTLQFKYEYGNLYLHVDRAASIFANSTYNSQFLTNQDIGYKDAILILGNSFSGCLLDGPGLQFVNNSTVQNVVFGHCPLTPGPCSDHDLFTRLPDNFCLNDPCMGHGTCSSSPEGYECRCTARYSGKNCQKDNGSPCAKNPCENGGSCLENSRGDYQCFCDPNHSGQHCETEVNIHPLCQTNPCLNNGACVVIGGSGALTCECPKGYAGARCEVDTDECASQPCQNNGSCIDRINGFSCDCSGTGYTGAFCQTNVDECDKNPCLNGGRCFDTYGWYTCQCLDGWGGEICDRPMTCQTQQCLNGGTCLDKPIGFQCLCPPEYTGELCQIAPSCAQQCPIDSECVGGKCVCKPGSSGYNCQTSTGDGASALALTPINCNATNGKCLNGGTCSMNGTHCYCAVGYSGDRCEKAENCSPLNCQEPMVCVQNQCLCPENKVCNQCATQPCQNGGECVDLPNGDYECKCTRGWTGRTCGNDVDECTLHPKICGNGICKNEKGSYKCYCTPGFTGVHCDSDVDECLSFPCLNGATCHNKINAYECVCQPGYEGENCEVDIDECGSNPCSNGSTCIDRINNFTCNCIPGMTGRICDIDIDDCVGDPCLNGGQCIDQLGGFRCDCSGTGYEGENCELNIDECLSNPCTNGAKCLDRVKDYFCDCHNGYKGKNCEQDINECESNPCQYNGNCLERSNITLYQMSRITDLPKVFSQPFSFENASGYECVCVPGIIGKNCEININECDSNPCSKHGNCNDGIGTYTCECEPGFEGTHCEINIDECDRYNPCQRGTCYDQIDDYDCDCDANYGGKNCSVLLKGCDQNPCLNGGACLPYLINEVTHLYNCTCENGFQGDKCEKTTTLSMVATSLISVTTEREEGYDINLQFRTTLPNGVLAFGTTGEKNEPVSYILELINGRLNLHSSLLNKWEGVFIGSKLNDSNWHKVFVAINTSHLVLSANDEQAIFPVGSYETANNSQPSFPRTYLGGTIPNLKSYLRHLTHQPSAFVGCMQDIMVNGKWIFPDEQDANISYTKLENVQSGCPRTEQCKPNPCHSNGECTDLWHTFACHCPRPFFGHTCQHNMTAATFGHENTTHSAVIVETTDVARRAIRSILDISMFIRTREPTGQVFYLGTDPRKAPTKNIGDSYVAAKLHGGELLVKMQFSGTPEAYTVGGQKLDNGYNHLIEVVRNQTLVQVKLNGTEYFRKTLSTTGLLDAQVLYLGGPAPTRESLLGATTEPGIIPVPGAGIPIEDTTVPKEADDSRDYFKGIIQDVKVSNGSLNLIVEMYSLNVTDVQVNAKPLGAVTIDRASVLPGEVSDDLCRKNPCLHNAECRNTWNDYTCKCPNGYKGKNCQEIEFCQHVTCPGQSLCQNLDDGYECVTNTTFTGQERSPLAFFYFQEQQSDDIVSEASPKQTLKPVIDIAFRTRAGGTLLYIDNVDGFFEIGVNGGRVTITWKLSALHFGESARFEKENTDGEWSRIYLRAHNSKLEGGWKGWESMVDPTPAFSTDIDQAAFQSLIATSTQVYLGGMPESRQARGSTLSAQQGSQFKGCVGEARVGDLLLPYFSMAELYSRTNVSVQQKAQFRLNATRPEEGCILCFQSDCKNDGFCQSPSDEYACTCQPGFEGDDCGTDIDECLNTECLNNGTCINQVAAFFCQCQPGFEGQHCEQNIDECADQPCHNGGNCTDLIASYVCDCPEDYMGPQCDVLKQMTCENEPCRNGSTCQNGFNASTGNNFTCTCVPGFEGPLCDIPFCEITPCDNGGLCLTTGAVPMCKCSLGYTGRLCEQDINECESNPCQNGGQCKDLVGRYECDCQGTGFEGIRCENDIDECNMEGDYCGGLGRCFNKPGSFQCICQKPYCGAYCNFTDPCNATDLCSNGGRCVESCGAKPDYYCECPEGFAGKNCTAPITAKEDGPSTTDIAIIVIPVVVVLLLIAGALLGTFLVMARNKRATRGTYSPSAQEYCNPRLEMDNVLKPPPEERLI

How the values were obtained:
[1] = target: Drosophila E-cadherin, endogenous in larval tracheae (Drosophila melanogaster (endogenous in larval tracheae)) (UniProt Q24298); assay: proximity ligation; fixed larval tracheae (fosapn_(sfGFP), DEcad-GFP or SAS-Venus larvae); primary antibodies against GFP and Crb (DEcad and GFP antibodies in Fig 2E); Duolink PLA kit
[2] = target: Stranded at second tagged with Venus (SAS-Venus) (Drosophila melanogaster) (UniProt Q04164); assay: as above
[3] = target: Drosophila E-cadherin tagged to GFP (DEcad-GFP) (Drosophila melanogaster) (UniProt Q24298); assay: as above
[4] = target: Apnoia, endogenous in larval tracheae (Drosophila melanogaster (endogenous in larval tracheae)) (UniProt Q9VFX3); assay: proximity ligation; wild type and apn^1 mutant larval tracheae, Apn and Crb antibodies
[5] = target: Apn-sfGFP, Apnoia C-terminally tagged with superfolder GFP from the fosmid fosapn_(sfGFP) (Drosophila melanogaster) (UniProt Q9VFX3); assay: proximity ligation; fixed larval tracheae (fosapn_(sfGFP), DEcad-GFP or SAS-Venus larvae); primary antibodies against GFP and Crb (DEcad and GFP antibodies in Fig 2E); Duolink PLA kit

- binding [1]: no binding
Substance: Apn-sfGFP, Apnoia C-terminally tagged with superfolder GFP from the fosmid fosapn_(sfGFP) (from UniProt Q9VFX3)

- binding [2]: no binding
- binding [3]: no binding
Substance: Apnoia, endogenous in larval tracheae (from UniProt Q9VFX3)

- binding [4]: binds
- binding [5]: binds
Substance: Crumbs, endogenous in larval tracheae (from UniProt P10040 84-2146)
